Source: paper PMC8225959 (Frontiers in Medicine, 2021)

Assay: general procedure: Fmoc solid-phase peptide synthesis; rink amide resin (MBHA)
Conditions: conjugation step

D-Phe-Gln-Trp-Ala-Val-Gly-His-Sta-Leu-NH2
conjugation yield: 57%
